No constants are given. Whether binding was seen depends on the method and setting. In cells and extracts the contact can be indirect.

Protein sequences, listed by entry. Tags and fused reporters are not part of them.
UniProt Q9Y6W5: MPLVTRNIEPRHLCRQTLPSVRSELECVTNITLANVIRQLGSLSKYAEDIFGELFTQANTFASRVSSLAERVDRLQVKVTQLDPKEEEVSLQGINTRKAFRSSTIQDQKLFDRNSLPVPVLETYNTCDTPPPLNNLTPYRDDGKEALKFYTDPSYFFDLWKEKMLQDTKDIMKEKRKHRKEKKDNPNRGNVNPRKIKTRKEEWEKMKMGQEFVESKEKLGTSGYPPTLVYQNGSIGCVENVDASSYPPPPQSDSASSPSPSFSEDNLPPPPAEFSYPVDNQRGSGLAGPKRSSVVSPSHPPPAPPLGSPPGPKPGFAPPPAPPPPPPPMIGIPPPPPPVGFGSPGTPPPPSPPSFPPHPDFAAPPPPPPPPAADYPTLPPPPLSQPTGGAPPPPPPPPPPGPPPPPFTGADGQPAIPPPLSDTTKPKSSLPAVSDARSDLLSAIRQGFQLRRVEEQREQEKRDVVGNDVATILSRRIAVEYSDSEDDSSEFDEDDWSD

The target in the test is T1, GDE3 (glycerophosphodiester phosphodiesterase 3), as used in the coimmunoprecipitations (UniProt Q9ESM6).
T1 sequence: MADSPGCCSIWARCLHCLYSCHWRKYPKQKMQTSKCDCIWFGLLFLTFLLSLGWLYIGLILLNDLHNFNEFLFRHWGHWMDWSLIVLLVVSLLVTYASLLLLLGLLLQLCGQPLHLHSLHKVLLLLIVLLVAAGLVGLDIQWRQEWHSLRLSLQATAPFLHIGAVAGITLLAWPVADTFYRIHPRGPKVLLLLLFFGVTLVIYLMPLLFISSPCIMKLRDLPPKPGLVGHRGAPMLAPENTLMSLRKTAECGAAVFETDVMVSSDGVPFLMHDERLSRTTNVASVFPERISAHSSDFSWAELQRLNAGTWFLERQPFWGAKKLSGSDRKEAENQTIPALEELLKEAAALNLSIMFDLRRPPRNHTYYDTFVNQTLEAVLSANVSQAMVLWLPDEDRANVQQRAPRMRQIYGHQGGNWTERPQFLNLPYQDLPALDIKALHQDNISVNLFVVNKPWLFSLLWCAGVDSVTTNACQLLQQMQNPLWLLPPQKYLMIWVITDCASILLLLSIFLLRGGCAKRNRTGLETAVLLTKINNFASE
In words: co-IP; transfected HEK293T cells or cultured astrocytes; methods of the coimmunoprecipitation not given in the text shown.

In the case of “WAVE2, as used in the coimmunoprecipitations (from UniProt Q9Y6W5 1-498)”, the binding entry is on record as “no binding”.

B1: WAVE3 (Wiskott-Aldrich syndrome protein family member 3), as used in the coimmunoprecipitations (protein, UniProt Q8VHI6 1-501)
chain: MPLVKRNIEPRHLCRGALPEGVTSELECVTNSTLAAIIRQLSSLSKHAEDIFGELFNEANNFYIRANSLQDRIDRLAVKVTQLDSTVEEVSLQDINMKKAFKSSTIQDQQVVSKNSIPNPVADIYNQSDKPPPLSILTPYRDDKKDGLKFYTDPSYFFDLWKEKMLQDTEDKRKEKRRQKEQKRVDGTTREVKKVRKARNRRQEWNMMAYDKELRPDNRLSQSVHHGASSEGSLSPDTRSHTSDVTDYSYPATPNHALQAQPATPSYTAGDAPLHGTTNQGAEHEYRPSSASARHMALNRPQQPPPPPPPQAPEGSQASTSVAPADYGMLPAQIIEYYSPSGPPPPPPPPMIPSAQTAFVSPLQMPTQPPFPASAVSTYPTPPHQPSTGLLATAPPPPGPPPPPPGPPGPSSLSSSPMHGPPVAEAKRPEPAQPPISDARSDLLAAIRMGIQLKKVQEQREQEAKREPVGNDVATILSRRIAVEYSDSDDDSEFDENDWSD
As to B1, the binding entry is “no binding”.
